Data on two substances can be found in PMC7718874, “Coupling of H3K27me3 recognition with transcriptional repression through the BAH-PHD-CPL2 complex in Arabidopsis” (Nature Communications, 2020).

The target of this assay is T1, CPL2, full-length, yeast two-hybrid fusion (Arabidopsis) (UniProt Q5YDB5).
T1 sequence: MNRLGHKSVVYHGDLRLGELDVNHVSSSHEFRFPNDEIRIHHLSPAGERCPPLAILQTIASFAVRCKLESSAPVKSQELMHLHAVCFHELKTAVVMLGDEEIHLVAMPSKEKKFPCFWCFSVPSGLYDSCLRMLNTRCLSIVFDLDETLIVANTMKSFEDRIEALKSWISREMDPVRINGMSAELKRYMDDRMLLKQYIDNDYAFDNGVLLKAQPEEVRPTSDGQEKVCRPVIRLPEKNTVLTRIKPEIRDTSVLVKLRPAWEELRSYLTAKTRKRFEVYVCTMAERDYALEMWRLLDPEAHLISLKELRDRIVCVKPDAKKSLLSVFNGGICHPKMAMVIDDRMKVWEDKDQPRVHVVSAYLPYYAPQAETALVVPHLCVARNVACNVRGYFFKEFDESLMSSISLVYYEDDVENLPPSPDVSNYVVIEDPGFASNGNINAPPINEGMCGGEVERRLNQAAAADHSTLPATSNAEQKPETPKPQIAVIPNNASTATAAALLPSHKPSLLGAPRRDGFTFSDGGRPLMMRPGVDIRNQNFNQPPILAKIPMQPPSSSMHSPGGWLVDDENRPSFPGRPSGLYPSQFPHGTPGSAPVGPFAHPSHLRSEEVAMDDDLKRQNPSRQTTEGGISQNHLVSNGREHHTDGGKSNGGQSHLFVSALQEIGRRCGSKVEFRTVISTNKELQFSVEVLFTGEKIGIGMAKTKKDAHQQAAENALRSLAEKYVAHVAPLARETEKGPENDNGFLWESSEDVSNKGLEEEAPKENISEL
The experiment in a line: two-hybrid; yeast two-hybrid, AD (pGADT7) and BD (pGBKT7) constructs, growth on SD -LW or -LWH plates, 30 °C, 3 d.

Results are given in words; binding and its absence hold for the method and conditions named. Binding calls can cover weak binding; strength is not graded here. Tags and fused reporters may be left off the sequences shown.

For “AIPP2 C-terminus part, yeast two-hybrid fusion (Arabidopsis) (domain or fragment)”, the binding entry is given as “binds”. With “PAIPP2 C-terminus part, yeast two-hybrid fusion (Arabidopsis) (domain or fragment)” the entry was “binds”.
